# Results: the supplement of paper PMC8728848
# The list shows a part of the results.
# B1: CRT-1 (Homo sapiens), P27797 (protein)
# chain: MLLSVPLLLGLLGLAVAEPAVYFKEQFLDGDGWTSRWIESKHKSDFGKFVLSSGKFYGDEEKDKGLQTSQDARFYALSASFEPFSNKGQTLVVQFTVKHEQNIDCGGGYVKLFPNSLDQTDMHGDSEYNIMFGPDICGPGTKKVHVIFNYKGKNVLINKDIRCKDDEFTHLYTLIVRPDNTYEVKIDNSQVESGSLEDDWDFLPPKKIKDPDASKPEDWDERAKIDDPTDSKPEDWDKPEHIPDPDAKKPEDWDEEMDGEWEPPVIQNPEYKGEWKPRQIDNPDYKGTWIHPEIDNPEYSPDPSIYAYDNFGVLGLDLWQVKSGTIFDNFLITNDEAYAEEFGNETWGVTKAAEKQMKDKQDEEQRLKEEEEDKKRKEEEEAEDKEDDEDKDEDEEDEEDKEEDEEEDVPGQAKDEL
# What was measured:
# Assay in all cases: glycan array binding signal (z-score within array); higher = stronger binding
# Details in all cases: glycan notation: IUPAC condensed, linker removed
# [1] = biological target: Fuc(a1-2)[GalNAc(a1-3)]Gal(b1-3)GalNAc(a1-3)[Fuc(a1-2)]Gal(b1-4)GlcNAc
# In short: (§1)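 Glycan array data were curated from 3228 arrays in the Consortium for Functional Glycomics database and kept only where the protein sequence was available. Glycan names were converted to IUPAC-condensed notation, and columns mapping to the same glycan were averaged. The binding signal is a within-array Z-score, averaged across arrays of the same protein sequence at different concentrations or buffers and across linkers. Negative Z-scores can be read as non-binding.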
# [2] = biological target: Fuc(a1-2)[GalNAc(a1-3)]Gal(b1-3)GalNAc(b1-3)Gal(a1-4)Gal(b1-4)Glc
# In short: as §1
# [3] = biological target: Fuc(a1-2)[GalNAc(a1-3)]Gal(b1-3)GlcNAc
# In short: as §1
# [4] = biological target: Fuc(a1-2)[GalNAc(a1-3)]Gal(b1-3)GlcNAc(b1-2)Man(a1-3)[Fuc(a1-2)[GalNAc(a1-3)]Gal(b1-3)GlcNAc(b1-2)Man(a1-6)]Man(b1-4)GlcNAc(b1-4)GlcNAc
# In short: as §1
# [5] = biological target: Fuc(a1-2)[GalNAc(a1-3)]Gal(b1-3)GlcNAc(b1-2)Man(a1-3)[Fuc(a1-2)[GalNAc(a1-3)]Gal(b1-3)GlcNAc(b1-2)Man(a1-6)]Man(b1-4)GlcNAc(b1-4)[Fuc(a1-6)]GlcNAc
# In short: as §1
# [6] = biological target: Fuc(a1-2)[GalNAc(a1-3)]Gal(b1-3)GlcNAc(b1-3)GalNAc
# In short: as §1
# [7] = biological target: Fuc(a1-2)[GalNAc(a1-3)]Gal(b1-3)GlcNAc(b1-6)GalNAc
# In short: as §1
# [8] = biological target: Fuc(a1-2)[GalNAc(a1-3)]Gal(b1-4)Glc
# In short: as §1
# [9] = biological target: Fuc(a1-2)[GalNAc(a1-3)]Gal(b1-4)GlcNAc
# In short: as §1
# [10] = biological target: Fuc(a1-2)[GalNAc(a1-3)]Gal(b1-4)GlcNAc(b1-2)Man
# In short: as §1
# [11] = biological target: Fuc(a1-2)[GalNAc(a1-3)]Gal(b1-4)GlcNAc(b1-2)Man(a1-3)[Fuc(a1-2)[GalNAc(a1-3)]Gal(b1-4)GlcNAc(b1-2)Man(a1-6)]Man(b1-4)GlcNAc(b1-4)GlcNAc
# In short: as §1
# [12] = biological target: Fuc(a1-2)[GalNAc(a1-3)]Gal(b1-4)GlcNAc(b1-2)Man(a1-3)[Fuc(a1-2)[GalNAc(a1-3)]Gal(b1-4)GlcNAc(b1-2)Man(a1-6)]Man(b1-4)GlcNAc(b1-4)[Fuc(a1-6)]GlcNAc
# In short: as §1
# [13] = biological target: Fuc(a1-2)[GalNAc(a1-3)]Gal(b1-4)GlcNAc(b1-3)Gal(b1-4)GlcNAc
# In short: as §1
# [14] = biological target: Fuc(a1-2)[GalNAc(a1-3)]Gal(b1-4)GlcNAc(b1-3)Gal(b1-4)GlcNAc(b1-3)Gal(b1-4)GlcNAc
# In short: as §1
# [15] = biological target: Fuc(a1-2)[GalNAc(a1-3)]Gal(b1-4)GlcNAc(b1-3)GalNAc
# In short: as §1
# [16] = biological target: Fuc(a1-2)[GalNAc(a1-3)]Gal(b1-4)GlcNAc(b1-3)[Fuc(a1-2)[GalNAc(a1-3)]Gal(b1-4)GlcNAc(b1-6)]GalNAc
# In short: as §1
# [17] = biological target: Fuc(a1-2)[GalNAc(a1-3)]Gal(b1-4)GlcNAc(b1-6)GalNAc
# In short: as §1
# [18] = biological target: Fuc(a1-2)[GalNAc(a1-3)]Gal(b1-4)[Fuc(a1-3)]GlcNAc
# In short: as §1
# [19] = biological target: Fuc(a1-2)[GalNAc(a1-3)]Gal(b1-4)[Fuc(a1-3)]GlcNAc(b1-3)GalNAc
# In short: as §1
# [20] = biological target: Fuc(a1-2)[GalNAc(a1-4)]Gal(b1-4)GlcNAc
# In short: as §1
# [21] = biological target: Fuc(a1-2)[GalNAc(b1-3)]Gal
# In short: as §1
# [22] = biological target: Fuc(a1-3)GlcNAc
# In short: as §1
# [23] = biological target: Fuc(a1-3)[Gal(b1-4)]Glc6S
# In short: as §1
# [24] = biological target: Fuc(a1-3)[Gal(b1-4)]GlcNAc
# In short: as §1
# [25] = biological target: Fuc(a1-3)[Gal(b1-4)]GlcNAc(b1-2)Man
# In short: as §1
# [26] = biological target: Fuc(a1-3)[Gal(b1-4)]GlcNAc(b1-2)Man(a1-3)[Fuc(a1-3)[Gal(b1-4)]GlcNAc(b1-2)Man(a1-6)]Man(b1-4)GlcNAc(b1-4)GlcNAc
# In short: as §1
# [27] = biological target: Fuc(a1-3)[Gal(b1-4)]GlcNAc(b1-2)Man(a1-3)[Fuc(a1-3)[Gal(b1-4)]GlcNAc(b1-2)Man(a1-6)]Man(b1-4)GlcNAc(b1-4)[Fuc(a1-6)]GlcNAc
# In short: as §1
# [28] = biological target: Fuc(a1-3)[Gal(b1-4)]GlcNAc(b1-3)Gal(b1-3)[Fuc(a1-4)]GlcNAc
# In short: as §1
# [29] = biological target: Fuc(a1-3)[Gal(b1-4)]GlcNAc(b1-3)Gal(b1-4)[Fuc(a1-3)]GlcNAc
# In short: as §1
# [30] = biological target: Fuc(a1-3)[Gal(b1-4)]GlcNAc(b1-3)Gal(b1-4)[Fuc(a1-3)]GlcNAc(b1-3)Gal(b1-4)[Fuc(a1-3)]GlcNAc
# In short: as §1
# [31] = biological target: Fuc(a1-3)[Gal(b1-4)]GlcNAc(b1-3)GalNAc
# In short: as §1
# [32] = biological target: Fuc(a1-3)[Gal(b1-4)]GlcNAc(b1-4)Gal(b1-4)[Fuc(a1-3)]GlcNAc
# In short: as §1
# [33] = biological target: Fuc(a1-3)[Gal(b1-4)]GlcNAc(b1-4)Gal(b1-4)[Fuc(a1-3)]GlcNAc(b1-4)Gal(b1-4)[Fuc(a1-3)]GlcNAc
# In short: as §1
# [34] = biological target: Fuc(a1-3)[Gal(b1-4)]GlcNAc(b1-6)GalNAc
# In short: as §1
# [35] = biological target: Fuc(a1-3)[Gal(b1-4)]GlcNAc(b1-6)[Gal(b1-3)GlcNAc(b1-3)]Gal(b1-4)Glc
# In short: as §1
# [36] = biological target: Fuc(a1-3)[Gal(b1-4)]GlcNAc6S
# In short: as §1
# [37] = biological target: Fuc(a1-3)[Gal3S(b1-4)]Glc
# In short: as §1
binder,measurement,setting,value
B1,glycan array binding signal (z-score),[1],-0.377
same,glycan array binding signal (z-score),[2],-0.548
same,glycan array binding signal (z-score),[3],-0.397
same,glycan array binding signal (z-score),[4],-0.107
same,glycan array binding signal (z-score),[5],-0.531
same,glycan array binding signal (z-score),[6],0.68
same,glycan array binding signal (z-score),[7],-0.976
same,glycan array binding signal (z-score),[8],-0.329
same,glycan array binding signal (z-score),[9],-0.467
same,glycan array binding signal (z-score),[10],-0.607
same,glycan array binding signal (z-score),[11],0.117
same,glycan array binding signal (z-score),[12],0.045
same,glycan array binding signal (z-score),[13],-0.116
same,glycan array binding signal (z-score),[14],0.218
same,glycan array binding signal (z-score),[15],-0.974
same,glycan array binding signal (z-score),[16],-0.475
same,glycan array binding signal (z-score),[17],-0.672
same,glycan array binding signal (z-score),[18],-0.26
same,glycan array binding signal (z-score),[19],-0.047
same,glycan array binding signal (z-score),[20],0.261
same,glycan array binding signal (z-score),[21],-0.274
same,glycan array binding signal (z-score),[22],2.63
same,glycan array binding signal (z-score),[23],0.367
same,glycan array binding signal (z-score),[24],-0.29
same,glycan array binding signal (z-score),[25],0.323
same,glycan array binding signal (z-score),[26],0.284
same,glycan array binding signal (z-score),[27],0.357
same,glycan array binding signal (z-score),[28],-0.184
same,glycan array binding signal (z-score),[29],-0.525
same,glycan array binding signal (z-score),[30],0.483
same,glycan array binding signal (z-score),[31],0.608
same,glycan array binding signal (z-score),[32],1.42
same,glycan array binding signal (z-score),[33],0.02
same,glycan array binding signal (z-score),[34],0.585
same,glycan array binding signal (z-score),[35],1.08
same,glycan array binding signal (z-score),[36],0.854
same,glycan array binding signal (z-score),[37],-0.265
